Experimental data from US4004008A, “O-Tertiary amino-alkyl-N-benzoyl tyrosil amides” (priority 1974, dated 1977).

Legend:
[1] = test system: intestinal transit of the charcoal; test: Vegetable carbon (charcoal) intestinal transit test in vivo; conditions: therapeutic index, DL50 / charcoal ED50, rat i.v.
Experimental: B. The vegetable carbon method in vivo (charcoal method) which consists of administering by oral means to rats, which have fasted for 24 hours, 0.3ml/per rate of a mixture consisting of: 10g of charcoal and 5 g of gum arabic suspended in a volume of 100 cc of H2 O as well as at the same time the substance being studied, accordingly as desired, generally i.v., s.c., oral. After two hours the animals are killed and those are taken to be negative in which the charcoal has reached the first portion of the colon and the others positive, in the sense that the substance administered has slowed down the intestinal transit of the charcoal.
In effect the animals treated with a physiological solution (checks) are all negative after two hours.
D. I.T.1 is the therapeutic index under the profile of the antispastic activity in vivo, and it is obtained by recording the DL50 (column 2) with the ED50 of the charcoal test (column 3).

[2] = test system: ileum of a cavy (BaCl2 spasm); test: Antispastic activity in vitro, Magnus method, cavy ileum stimulated with BaCl2; assay type: cell-based; conditions: therapeutic index, in vitro activity index (column 4) x DL50
Experimental: C. The method in vitro is that of Magnus, with the ileum of the cavy, and is in common use for all evaluations. It consists of extracting the ileum from the cavy and placing it in a receptacle which contains nutritive liquid, suitably oxygenated, and registering the movements of the organ which remains alive for several hours if maintained at a temperature of 37°. According to the traditional method followed by us, BaCl2 is put into the bath as a spasmisant: the reaction is a violent contraction of the organ. This contraction can be prevented by adding beforehand pharmaceuticals which inhibit spasms, and in this case our compounds.
The values recorded are expressed as relation between papaverine and the ED50 of our compounds. (As is known, the ED50 is the dose which results in a 50% reduction in spastic contraction).
E. I.T.2 is the therapeutic index under the profile of the antispastic activity in vitro and is given by the product between the in vitro antispastic activity index (column 4) and the corresponding DL50 (column 2).

CCCN(CCC)C(=O)C(Cc1ccc(OCCN(C)C)cc1)NC(=O)c1ccccc1 (racemic) [CR 592, O-(2dimethylamino-ethyl)-N-benzol-DL-Tyrosil-di-n-propilamide]
I.T.1: DL50/ED50 in vivo [1]: 1.2
I.T.2: DL50 CR x ED50 pap./ED50 CR [2]: 14.0

CCCN(CCC)C(=O)C(Cc1ccc(OCCN(CC)CC)cc1)NC(=O)c1ccccc1 (racemic) [CR 605, O-(2-diethylamino-ethyl)-N-benzoyl-DL-tyrosil-di-n-propylamide]
I.T.1: DL50/ED50 in vivo [1]: 3.2
I.T.2: DL50 CR x ED50 pap./ED50 CR [2]: 42.5

CCCN(CCC)C(=O)C(Cc1ccc(OCCCN(C)C)cc1)NC(=O)c1ccccc1 (racemic) [CR 607, O-(3-dimethylamino-propyl)-N-benzoyl-DL-tyrosil-di-n-propylamide]
I.T.1: DL50/ED50 in vivo [1]: 1.2
I.T.2: DL50 CR x ED50 pap./ED50 CR [2]: 13.3

CCNC(=O)C(Cc1ccc(OCCN(C)C)cc1)NC(=O)c1ccccc1 (racemic) [CR 608, O-(2-dimethylamino-ethyl)-N-benzoyl-DL-tyrosil-ethylamide]
I.T.1: DL50/ED50 in vivo [1]: 1.5

CCCN(CCC)C(=O)C(Cc1ccc(OCCCN2CCN(CCO)CC2)cc1)NC(=O)c1ccccc1 (racemic) [CR 609, O-[3-(N"-hydroxyethyl-piperazine)-N'-propyl]-N-benzoyl-DL-tyrosil-di-n-propylamide]
I.T.1: DL50/ED50 in vivo [1]: 2.7
I.T.2: DL50 CR x ED50 pap./ED50 CR [2]: 94.0

CN(C)CCOc1ccc(CC(NC(=O)c2ccccc2)C(=O)N2CCOCC2)cc1 (racemic) [CR 611, O-(2-dimetylamino-ethyl)-N-benzoyl-DL-tyrosil-morpholilamide]
I.T.1: DL50/ED50 in vivo [1]: 1.8

CCN(CC)CCOc1ccc(CC(NC(=O)c2ccccc2)C(=O)N2CCCC2)cc1 (racemic) [CR 614, O-(2-diethylamino-ethyl)-N-benzoyl-DL-tyrosil-pyrrolidilamide]
I.T.1: DL50/ED50 in vivo [1]: 1.1

CCCN(CCC)C(=O)C(Cc1ccc(OCCN(C)C)cc1)NC(=O)c1ccc(C)cc1 (racemic) [CR 615, O-(2-dimethylamino-ethyl)-N-toluoyl-DL-tyrosil-di-n-propylamide]
I.T.2: DL50 CR x ED50 pap./ED50 CR [2]: 33.2

CN(C)CCOc1ccc(CC(NC(=O)c2ccccc2)C(=O)NCc2ccccc2)cc1 (racemic) [CR 616, O-(2-dimethylamino-ethyl)-N-benzoyl-DL-tyrosil-benzylamide]
I.T.2: DL50 CR x ED50 pap./ED50 CR [2]: 60.0

CCCN(CCC)C(=O)C(Cc1ccc(OCCCN2CCN(Cc3ccccc3)CC2)cc1)NC(=O)c1ccccc1 (racemic) [CR 619, O-[3-(N"-benzylpiperazine)-N'-propyl]-N-benzoyl-DL-tyrosil-di-n-propylamide]
I.T.1: DL50/ED50 in vivo [1]: 1.6

CCCN(CCC)C(=O)C(Cc1ccc(OCCN(C)C)cc1)NC(=O)c1ccc([N+](=O)[O-])cc1 (racemic) [CR 620, O-(2-dimethylamino-ethyl)-N-(p-nitro-benzoyl)DL-tyrosil-di-n-propylamide]
I.T.2: DL50 CR x ED50 pap./ED50 CR [2]: 41.8

CCCN(CCC)C(=O)C(Cc1ccc(OCCN(C(C)C)C(C)C)cc1)NC(=O)c1ccccc1 (racemic) [CR 624, O-(2-di-isopropylamino-ethyl)-N-benzoyl-DL-tyrosil-di-n-propylamide]
I.T.2: DL50 CR x ED50 pap./ED50 CR [2]: 27.5

CCCN(CCC)C(=O)C(Cc1ccc(OCCN2CCCC2)cc1)NC(=O)c1ccccc1 (racemic) [CR 625, O-(2-pyrrolidil-N'-ethyl)-N-benzoyl-DL-tyrosil-di-n-propylamide]
I.T.1: DL50/ED50 in vivo [1]: 1.5
I.T.2: DL50 CR x ED50 pap./ED50 CR [2]: 16.9

CCCN(CCC)C(=O)C(Cc1ccc(OCCN2CCCCC2)cc1)NC(=O)c1ccccc1 (racemic) [CR 630, O-(2-piperidil -N'-ethyl)-N-benzoyl-DL-tyrosil-di-n-propylamide]
I.T.1: DL50/ED50 in vivo [1]: 0.9

CCCN(CCC)C(=O)C(Cc1ccc(OCCN(CC)CC)cc1)NC(=O)c1ccc(Br)cc1 (racemic) [CR 631, O-(2-diethylamino-ethyl)-N-(p-bromobenzoyl)-DL-tyrosil-din-propylamide]
I.T.1: DL50/ED50 in vivo [1]: 1.5
I.T.2: DL50 CR x ED50 pap./ED50 CR [2]: 73.1

CCCN(CCC)C(=O)C(Cc1ccc(OCCN(CC)CC)cc1)NC(=O)c1ccc(C)c(C)c1 (racemic) [CR 632, O-(2-diethylamino-ethyl)-N-(3,4-di-methyl-benzoyl)-DL-tyrosil-di-n-propylamide]
I.T.1: DL50/ED50 in vivo [1]: 1.4
I.T.2: DL50 CR x ED50 pap./ED50 CR [2]: 15.2

CCCN(CCC)C(=O)C(Cc1ccc(OCCN(CC)CC)cc1)NC(=O)c1ccc(C(F)(F)F)cc1 (racemic) [CR 635, O-(2-diethylamino-ethyl)-N-[p-(trifluoro-methyl)-benzoyl]-DL-tyrosil-di-n-p ropylamide]
I.T.1: DL50/ED50 in vivo [1]: 1.5
I.T.2: DL50 CR x ED50 pap./ED50 CR [2]: 36.8

CCCN(CCC)C(=O)C(Cc1ccc(OCCN(CC)CC)cc1)NC(=O)c1ccc(OC)cc1 (racemic) [CR 644, O-(2-diethylamino-ethyl)-N-(p-metoxy-benzoyl)-DL-tyrosil-di-n-propylamide]
I.T.1: DL50/ED50 in vivo [1]: 2.8
I.T.2: DL50 CR x ED50 pap./ED50 CR [2]: 25.3

CCCCNC(=O)C(Cc1ccc(OCCN2CCCC2)cc1)NC(=O)c1ccccc1 (racemic) [CR 648, O-(2-pyrrolidil-N'-ethyl)-N-benzoyl-DL-tyrosil-n-butylamide]
I.T.1: DL50/ED50 in vivo [1]: 3.3
I.T.2: DL50 CR x ED50 pap./ED50 CR [2]: 5.7

CCCN(CCC)C(=O)C(Cc1ccc(OCCN2CCCC2)cc1)NC(=O)c1ccc(C)cc1 (racemic) [CR 650, O-(2-pyrrolidil-N'-ethyl)-N-toluoyl-DL-tyrosil-di-n-propylamide]
I.T.1: DL50/ED50 in vivo [1]: 0.95
I.T.2: DL50 CR x ED50 pap./ED50 CR [2]: 20.5

CCCN(CCC)C(=O)C(Cc1ccc(OC(C)C(C)CN(CC)CC)cc1)NC(=O)c1ccccc1 (racemic) [CR 700, O-(3-diethylamino-1,2-dimethyl-propyl)-N-benzoyl-DL-tyrosil-di-n-propylamide]
I.T.1: DL50/ED50 in vivo [1]: 0.95

CCNC(=O)C(Cc1ccc(OCCN(C(C)C)C(C)C)cc1)NC(=O)c1ccccc1 (racemic) [CR 711, O-(2-diisopropylamino-ethyl)-N-benzoyl-DL-tyrosil-ethylamide]
I.T.2: DL50 CR x ED50 pap./ED50 CR [2]: 34.4

CCNC(=O)C(Cc1ccc(OCCCN2CCN(C)CC2)cc1)NC(=O)c1ccc(Cl)cc1 (racemic) [CR 714, O-[3-(N"-methyl-piperazine)-N'-propyl]-N-(p-chloro-benzoyl)-DL-tyrosil-ethylamide]
I.T.2: DL50 CR x ED50 pap./ED50 CR [2]: 34.4

CCN(CC)CCOc1ccc(CC(NC(=O)c2ccccc2)C(N)=O)cc1 (racemic) [CR 740, O-(2-dietylamino-ethyl)-N-benzoyl-DL-tyrosil-amide]
I.T.2: DL50 CR x ED50 pap./ED50 CR [2]: 36.4

CCCN(CCC)C(=O)C(Cc1ccc(OCCCCN(CC)CC)cc1)NC(=O)c1ccccc1 (racemic) [CR 829, O-(4-diethylamino-butyl)-N-benzoyl-DL-tyrosil-di-n-propylamide]
I.T.1: DL50/ED50 in vivo [1]: 1.3

CN(C)CCOc1ccc(C[C@H](NC(=O)OCc2ccccc2)C(=O)N2CCOCC2)cc1 [CR 606, O-(2-dimethylamino-ethyl)-N-carbobenzoxy-L-tyrosil-morpholylamide]
I.T.2: DL50 CR x ED50 pap./ED50 CR [2]: 24.3

COc1ccc(Cc2nccc3cc(OC)c(OC)cc23)cc1OC [Papaverine, papaverine, reference compound]
I.T.2: DL50 CR x ED50 pap./ED50 CR [2]: 27.2

O-(2-diisopropylamino-ethyl)-N-toluoyl-DL-tyrosil-n-butylamide [CR 709]
I.T.1: DL50/ED50 in vivo [1]: 1.1
